# According to the supplement of paper PMC7666118:
# Sequences of proteins named here, by UniProt entry; tags and fusion partners are left off. A change or cut given only in a name is not applied to a line headed by its entry.
# UniProt Q8N0Z8: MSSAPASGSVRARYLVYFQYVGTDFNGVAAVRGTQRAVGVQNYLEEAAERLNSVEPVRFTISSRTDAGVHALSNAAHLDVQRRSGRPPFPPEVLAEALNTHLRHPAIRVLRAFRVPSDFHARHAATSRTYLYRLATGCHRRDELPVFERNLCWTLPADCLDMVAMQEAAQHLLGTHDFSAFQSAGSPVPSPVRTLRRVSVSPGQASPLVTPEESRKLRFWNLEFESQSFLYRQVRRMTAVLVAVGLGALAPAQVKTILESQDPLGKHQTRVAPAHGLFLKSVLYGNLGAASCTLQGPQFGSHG
# UniProt Q00577: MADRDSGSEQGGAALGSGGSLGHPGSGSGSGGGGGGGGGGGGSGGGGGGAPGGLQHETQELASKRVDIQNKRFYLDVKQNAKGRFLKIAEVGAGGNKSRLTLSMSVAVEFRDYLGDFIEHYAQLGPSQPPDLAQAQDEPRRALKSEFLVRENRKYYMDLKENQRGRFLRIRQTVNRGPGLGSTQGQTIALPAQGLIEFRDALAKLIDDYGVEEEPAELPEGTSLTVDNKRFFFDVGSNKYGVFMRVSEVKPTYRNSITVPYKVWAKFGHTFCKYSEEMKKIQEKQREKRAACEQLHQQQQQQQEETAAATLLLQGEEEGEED
# UniProt Q96EV2: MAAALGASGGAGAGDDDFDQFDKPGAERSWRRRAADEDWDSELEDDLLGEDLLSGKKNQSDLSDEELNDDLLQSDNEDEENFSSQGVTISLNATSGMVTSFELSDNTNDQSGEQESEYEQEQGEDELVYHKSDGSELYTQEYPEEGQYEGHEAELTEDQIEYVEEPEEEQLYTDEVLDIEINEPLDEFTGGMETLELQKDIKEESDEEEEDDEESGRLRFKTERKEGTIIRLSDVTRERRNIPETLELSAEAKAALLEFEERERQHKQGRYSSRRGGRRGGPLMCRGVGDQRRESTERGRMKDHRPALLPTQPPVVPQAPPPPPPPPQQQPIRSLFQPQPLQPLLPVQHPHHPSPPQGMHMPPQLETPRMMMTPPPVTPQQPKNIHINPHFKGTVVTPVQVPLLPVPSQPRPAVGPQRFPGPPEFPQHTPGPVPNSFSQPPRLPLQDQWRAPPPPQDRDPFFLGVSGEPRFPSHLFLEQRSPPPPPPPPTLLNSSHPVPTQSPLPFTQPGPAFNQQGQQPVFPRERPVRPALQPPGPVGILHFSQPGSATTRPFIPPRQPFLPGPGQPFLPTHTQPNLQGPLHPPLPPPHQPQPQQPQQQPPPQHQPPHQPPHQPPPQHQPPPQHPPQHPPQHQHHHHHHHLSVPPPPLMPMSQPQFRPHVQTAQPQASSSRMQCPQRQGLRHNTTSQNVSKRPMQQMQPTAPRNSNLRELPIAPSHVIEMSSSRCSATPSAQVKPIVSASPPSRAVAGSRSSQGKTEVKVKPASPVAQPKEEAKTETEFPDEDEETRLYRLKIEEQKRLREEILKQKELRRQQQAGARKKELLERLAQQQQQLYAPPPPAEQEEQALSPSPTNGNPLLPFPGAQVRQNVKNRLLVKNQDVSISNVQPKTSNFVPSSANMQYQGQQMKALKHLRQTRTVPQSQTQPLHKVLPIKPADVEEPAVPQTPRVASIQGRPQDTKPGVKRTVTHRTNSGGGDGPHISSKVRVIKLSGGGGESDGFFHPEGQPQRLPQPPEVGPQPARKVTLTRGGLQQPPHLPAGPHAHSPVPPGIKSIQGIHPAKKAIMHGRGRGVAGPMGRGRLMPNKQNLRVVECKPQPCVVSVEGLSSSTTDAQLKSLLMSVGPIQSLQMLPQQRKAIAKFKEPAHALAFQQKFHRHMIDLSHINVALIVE
# UniProt Q8ND24: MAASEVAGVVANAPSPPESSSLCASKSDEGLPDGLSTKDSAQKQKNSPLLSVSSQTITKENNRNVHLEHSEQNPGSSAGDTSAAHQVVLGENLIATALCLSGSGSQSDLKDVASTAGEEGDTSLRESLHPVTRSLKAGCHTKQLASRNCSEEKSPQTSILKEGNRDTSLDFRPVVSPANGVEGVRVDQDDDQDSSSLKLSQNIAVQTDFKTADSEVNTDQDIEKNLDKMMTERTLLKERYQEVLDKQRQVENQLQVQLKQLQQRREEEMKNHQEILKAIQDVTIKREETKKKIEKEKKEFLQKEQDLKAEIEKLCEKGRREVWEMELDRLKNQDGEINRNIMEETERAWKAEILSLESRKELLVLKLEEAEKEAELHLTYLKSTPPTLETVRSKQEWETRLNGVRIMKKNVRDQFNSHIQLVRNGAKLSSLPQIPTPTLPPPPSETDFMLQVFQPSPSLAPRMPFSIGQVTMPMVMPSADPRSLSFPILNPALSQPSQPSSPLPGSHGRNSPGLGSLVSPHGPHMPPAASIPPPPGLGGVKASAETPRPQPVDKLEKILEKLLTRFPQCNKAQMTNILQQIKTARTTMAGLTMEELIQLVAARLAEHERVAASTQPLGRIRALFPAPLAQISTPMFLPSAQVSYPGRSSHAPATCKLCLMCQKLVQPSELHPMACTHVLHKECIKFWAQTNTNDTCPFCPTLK
# UniProt O95997: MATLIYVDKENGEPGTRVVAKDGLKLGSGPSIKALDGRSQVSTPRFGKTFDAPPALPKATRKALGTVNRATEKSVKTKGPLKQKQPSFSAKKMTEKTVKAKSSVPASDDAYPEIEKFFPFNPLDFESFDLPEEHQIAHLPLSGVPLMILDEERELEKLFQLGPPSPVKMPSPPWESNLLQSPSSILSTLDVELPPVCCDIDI
# UniProt Q8NCN4: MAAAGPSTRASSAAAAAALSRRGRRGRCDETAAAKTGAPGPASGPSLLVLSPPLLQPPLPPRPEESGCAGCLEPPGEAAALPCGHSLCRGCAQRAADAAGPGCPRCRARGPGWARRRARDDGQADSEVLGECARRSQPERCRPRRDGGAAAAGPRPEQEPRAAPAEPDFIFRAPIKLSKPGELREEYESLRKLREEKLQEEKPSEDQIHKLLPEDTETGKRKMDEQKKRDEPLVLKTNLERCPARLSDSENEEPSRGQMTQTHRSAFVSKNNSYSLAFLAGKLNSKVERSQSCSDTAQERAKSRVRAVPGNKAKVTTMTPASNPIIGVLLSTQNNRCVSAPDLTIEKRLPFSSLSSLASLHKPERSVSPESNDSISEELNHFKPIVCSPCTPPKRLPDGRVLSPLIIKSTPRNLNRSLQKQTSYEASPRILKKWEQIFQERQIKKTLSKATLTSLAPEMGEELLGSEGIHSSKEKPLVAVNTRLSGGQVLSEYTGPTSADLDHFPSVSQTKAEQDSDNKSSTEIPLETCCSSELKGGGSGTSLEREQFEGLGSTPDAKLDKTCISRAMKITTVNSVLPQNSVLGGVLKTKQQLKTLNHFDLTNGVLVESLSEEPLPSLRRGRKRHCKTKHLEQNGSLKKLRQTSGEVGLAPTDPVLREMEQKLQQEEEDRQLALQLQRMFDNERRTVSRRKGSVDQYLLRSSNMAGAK
# UniProt P20338: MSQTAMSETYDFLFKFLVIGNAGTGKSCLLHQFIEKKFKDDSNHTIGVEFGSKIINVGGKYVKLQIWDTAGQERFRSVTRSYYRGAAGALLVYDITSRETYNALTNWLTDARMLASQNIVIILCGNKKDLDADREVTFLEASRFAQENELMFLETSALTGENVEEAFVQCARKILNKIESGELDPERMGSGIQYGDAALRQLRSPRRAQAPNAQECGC
# UniProt P11216: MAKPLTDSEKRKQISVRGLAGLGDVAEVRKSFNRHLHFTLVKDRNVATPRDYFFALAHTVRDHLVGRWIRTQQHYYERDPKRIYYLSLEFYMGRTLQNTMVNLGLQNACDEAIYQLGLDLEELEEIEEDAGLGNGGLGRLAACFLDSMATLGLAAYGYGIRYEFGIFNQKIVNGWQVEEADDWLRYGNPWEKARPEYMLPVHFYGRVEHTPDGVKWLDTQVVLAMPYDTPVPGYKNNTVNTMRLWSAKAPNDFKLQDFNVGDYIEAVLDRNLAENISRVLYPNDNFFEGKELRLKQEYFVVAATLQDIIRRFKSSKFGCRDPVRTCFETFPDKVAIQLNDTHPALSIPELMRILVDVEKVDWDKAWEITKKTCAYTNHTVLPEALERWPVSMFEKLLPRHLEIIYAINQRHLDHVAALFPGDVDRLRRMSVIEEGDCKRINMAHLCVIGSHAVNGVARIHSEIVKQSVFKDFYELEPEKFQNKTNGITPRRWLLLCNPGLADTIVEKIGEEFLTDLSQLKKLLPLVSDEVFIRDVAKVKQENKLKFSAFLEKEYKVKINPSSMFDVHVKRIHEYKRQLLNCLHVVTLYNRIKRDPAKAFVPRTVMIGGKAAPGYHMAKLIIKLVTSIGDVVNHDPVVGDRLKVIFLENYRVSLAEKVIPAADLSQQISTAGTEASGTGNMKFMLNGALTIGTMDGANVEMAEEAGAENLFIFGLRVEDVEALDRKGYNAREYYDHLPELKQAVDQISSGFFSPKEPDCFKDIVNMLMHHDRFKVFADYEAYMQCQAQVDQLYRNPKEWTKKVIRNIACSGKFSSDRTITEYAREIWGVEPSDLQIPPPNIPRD
# UniProt Q9NW64: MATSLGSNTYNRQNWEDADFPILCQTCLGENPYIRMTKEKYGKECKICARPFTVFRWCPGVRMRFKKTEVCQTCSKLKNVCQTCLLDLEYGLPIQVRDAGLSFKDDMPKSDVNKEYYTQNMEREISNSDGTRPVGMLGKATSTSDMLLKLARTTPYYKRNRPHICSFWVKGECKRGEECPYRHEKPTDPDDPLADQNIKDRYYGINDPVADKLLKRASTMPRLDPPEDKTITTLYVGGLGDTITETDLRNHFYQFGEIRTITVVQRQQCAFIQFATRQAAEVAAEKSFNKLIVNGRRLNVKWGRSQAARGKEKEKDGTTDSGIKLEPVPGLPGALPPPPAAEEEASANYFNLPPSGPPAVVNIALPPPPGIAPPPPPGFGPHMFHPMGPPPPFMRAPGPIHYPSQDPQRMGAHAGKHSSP
# UniProt Q9P2R6: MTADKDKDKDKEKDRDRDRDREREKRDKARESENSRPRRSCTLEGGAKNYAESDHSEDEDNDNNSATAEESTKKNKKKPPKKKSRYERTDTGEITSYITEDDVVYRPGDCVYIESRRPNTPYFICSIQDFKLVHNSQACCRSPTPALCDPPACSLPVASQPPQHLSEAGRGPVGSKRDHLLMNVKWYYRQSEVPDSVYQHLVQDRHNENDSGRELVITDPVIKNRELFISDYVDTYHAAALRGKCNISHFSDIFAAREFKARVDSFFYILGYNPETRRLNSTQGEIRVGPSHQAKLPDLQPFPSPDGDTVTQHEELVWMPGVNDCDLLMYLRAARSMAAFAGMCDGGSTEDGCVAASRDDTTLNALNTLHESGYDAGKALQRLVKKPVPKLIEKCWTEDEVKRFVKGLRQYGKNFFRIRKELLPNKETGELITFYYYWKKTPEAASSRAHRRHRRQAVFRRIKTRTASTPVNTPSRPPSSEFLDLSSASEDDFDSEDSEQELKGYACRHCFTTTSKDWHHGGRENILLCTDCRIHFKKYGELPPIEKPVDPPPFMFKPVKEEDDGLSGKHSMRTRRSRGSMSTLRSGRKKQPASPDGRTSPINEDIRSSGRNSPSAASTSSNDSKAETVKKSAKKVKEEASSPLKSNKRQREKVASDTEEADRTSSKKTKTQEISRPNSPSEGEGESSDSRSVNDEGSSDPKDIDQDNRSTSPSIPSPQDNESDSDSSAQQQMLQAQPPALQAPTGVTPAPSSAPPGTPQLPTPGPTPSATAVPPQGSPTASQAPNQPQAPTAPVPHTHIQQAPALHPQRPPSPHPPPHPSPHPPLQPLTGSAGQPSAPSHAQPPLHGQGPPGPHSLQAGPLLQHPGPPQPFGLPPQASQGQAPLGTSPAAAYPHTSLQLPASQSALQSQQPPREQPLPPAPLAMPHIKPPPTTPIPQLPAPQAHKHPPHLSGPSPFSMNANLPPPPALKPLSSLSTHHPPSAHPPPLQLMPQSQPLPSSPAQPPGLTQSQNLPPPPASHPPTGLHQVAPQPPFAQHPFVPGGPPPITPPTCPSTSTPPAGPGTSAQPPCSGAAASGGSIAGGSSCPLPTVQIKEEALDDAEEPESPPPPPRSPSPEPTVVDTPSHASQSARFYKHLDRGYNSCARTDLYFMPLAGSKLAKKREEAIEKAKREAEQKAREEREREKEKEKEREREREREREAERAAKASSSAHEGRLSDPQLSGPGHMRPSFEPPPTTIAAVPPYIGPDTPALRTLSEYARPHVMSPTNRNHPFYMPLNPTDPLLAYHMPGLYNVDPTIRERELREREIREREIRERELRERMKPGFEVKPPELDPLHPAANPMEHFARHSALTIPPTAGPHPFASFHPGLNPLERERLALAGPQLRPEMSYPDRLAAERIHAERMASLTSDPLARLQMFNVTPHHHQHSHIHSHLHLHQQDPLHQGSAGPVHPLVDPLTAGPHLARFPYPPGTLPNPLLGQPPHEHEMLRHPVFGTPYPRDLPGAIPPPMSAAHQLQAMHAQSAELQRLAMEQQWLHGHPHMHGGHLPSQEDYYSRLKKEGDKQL
# Some of the results follow.
# Compound: COc1ccc(Cn2ccc3cc(C)c(C(=O)NO)cc32)cc1
# Test: dose-dependent thermal stabilisation call (2D-TPP, DLPTP, 10% FDR) (binary (1 = stabilised)); higher = stabilised by the compound
# Details: system: HL-60 intact cells; concentration range 0.04-10 µM
# Procedure: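 2D thermal proteome profiling in intact HL-60 cells treated with BRD-3811 (0, 0.04, 0.29, 2, 10 uM) for 90 min at 37 C, then heated 3 min at one of 12 temperatures (42-63.9 C). Soluble protein was quantified by TMT10 MS. The value is the DLPTP call of the paper: dose-dependent thermal stabilisation over all temperatures at 10% FDR (F-test of a dose-response against a flat model); one experiment, one call per tested protein.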
row,Target,dose-dependent thermal stabilisation call
1,RAB32 (UniProt Q13637),inactive: 0
2,RAD51 (UniProt Q06609),inactive: 0
3,RAD50 (UniProt Q92878),inactive: 0
4,RAG1AP1 (UniProt Q9BRV3),inactive: 0
5,RBBP9 (UniProt O75884),inactive: 0
6,REXO2 (UniProt Q9Y3B8),inactive: 0
7,RAB3D (UniProt O95716),inactive: 0
8,RNF14 (UniProt Q9UBS8),inactive: 0
9,RASA1 (UniProt P20936),inactive: 0
10,RASA3 (UniProt Q14644),inactive: 0
11,PUSL1 (UniProt Q8N0Z8),inactive: 0
12,RAB3GAP (UniProt Q15042),inactive: 0
13,RAD1 (UniProt O60671),inactive: 0
14,PVRL1 (UniProt Q15223),inactive: 0
15,PURA (UniProt Q00577),inactive: 0
16,RCOR1 (UniProt Q9UKL0),inactive: 0
17,RBM33 (UniProt Q96EV2),inactive: 0
18,RNF214 (UniProt Q8ND24),inactive: 0

# A run of entries of the results above:
row,Target,dose-dependent thermal stabilisation call
3,RAD50 (UniProt Q92878),inactive: 0
4,RAG1AP1 (UniProt Q9BRV3),inactive: 0
5,RBBP9 (UniProt O75884),inactive: 0
6,REXO2 (UniProt Q9Y3B8),inactive: 0
7,RAB3D (UniProt O95716),inactive: 0
8,RNF14 (UniProt Q9UBS8),inactive: 0
9,RASA1 (UniProt P20936),inactive: 0
10,RASA3 (UniProt Q14644),inactive: 0
11,PUSL1 (UniProt Q8N0Z8),inactive: 0
12,RAB3GAP (UniProt Q15042),inactive: 0
13,RAD1 (UniProt O60671),inactive: 0

# Later entries.

row,Target,dose-dependent thermal stabilisation call
1,PTTG1 (UniProt O95997),inactive: 0
2,RNF169 (UniProt Q8NCN4),inactive: 0
3,QSOX2 (UniProt Q6ZRP7),inactive: 0
4,RAB11FIP1 (UniProt Q6WKZ4),inactive: 0
5,RAB4A (UniProt P20338),inactive: 0
6,RB1CC1 (UniProt Q8TDY2),inactive: 0
7,RASAL2 (UniProt Q9UJF2),inactive: 0
8,PYGB (UniProt P11216),inactive: 0
9,RAB21 (UniProt Q9UL25),inactive: 0
10,RNF123 (UniProt Q5XPI4),inactive: 0
11,RNF181 (UniProt Q9P0P0),inactive: 0
12,RAB1B (UniProt Q9H0U4),inactive: 0
13,RBM22 (UniProt Q9NW64),inactive: 0
14,RANBP9 (UniProt Q96S59),inactive: 0
15,RAB24 (UniProt Q969Q5),inactive: 0
16,RERE (UniProt Q9P2R6),inactive: 0
17,RAB3GAP2 (UniProt Q9H2M9),inactive: 0
18,RIOK1 (UniProt Q9BRS2),inactive: 0
